Source: US6562595B2, “Dominant selectable marker for gene transformation and disruption in yeasts” (McGill University, priority 2000, dated 2003)
At least one structure is not confirmed: it was looked up by name or label, or the drawing left a doubt.

Tested on: C. albicans strain SC5314
Experiment: Halo assay (zones of inhibition on confluent plates)
Format: cell-based, Candida albicans
Conditions: 5 μl spots, 10 to 0.06 mg/ml, overnight growth
Description: Confluent plates of either S. cerevisiae diploid strain SEY6210 (left panel) or C. albicans strain SC5314 (right panel) were spotted with 5 μl of destomycin (DSM), blasticidin (BSN), nourseothricin (NST), geneticin (G418), zeocin (ZEO), and puromycin (PUR) using concentrations of 10 mg/ml, 1 mg/ml, 0.5 mg/ml, 0.25 mg/ml, 0.125 mg/ml, and 0.06 mg/ml (top to bottom). Zones of inhibition were examined after overnight growth; clear halos indicate antifungal activity;
To explore the possibility of developing a dominant selectable marker for C. albicans, geneticin, the aminoglycoside used in dominant selection studies in S. cerevisiae was initially examined for antifungal activity in C. albicans (FIG. 1). […] When a number of alternative commercially available antibiotics including zeocin, destomycin, nourseothricin, blasticidin, and puromycin were tested for antifungal activity, the present inventors discovered that C. albicans was sensitive to nourseothricin at a concentration of about 200 μg/ml. […] C. albicans was also found to be sensitive to blasticidin. […] (Webster et al., 1983, Gene 26:243-252).

How did the “antifungal (fungicidal) activity by halo assay” value turn out when CN[C@@H]1[C@@H](O)[C@@H](O[C@@H]2[C@@H](O)[C@H](O[C@H]3O[C@H]([C@@H](C)O)[C@@H](O)[C@H](O)[C@H]3N)[C@@H](N)C[C@H]2N)OC[C@]1(C)O [geneticin] was run?
Its value is “failed to show significant fungicidal activity”.
